These are yes or no findings as the source states them, for the method shown. A result given as binding can be weak or reduced; the word gives no strength.
Biological target: T1, mouse sperm-associated antigen 6-like (SPAG6L), the evolved gene on chromosome 16 (mouse) (UniProt Q9JLI7)
T1 sequence: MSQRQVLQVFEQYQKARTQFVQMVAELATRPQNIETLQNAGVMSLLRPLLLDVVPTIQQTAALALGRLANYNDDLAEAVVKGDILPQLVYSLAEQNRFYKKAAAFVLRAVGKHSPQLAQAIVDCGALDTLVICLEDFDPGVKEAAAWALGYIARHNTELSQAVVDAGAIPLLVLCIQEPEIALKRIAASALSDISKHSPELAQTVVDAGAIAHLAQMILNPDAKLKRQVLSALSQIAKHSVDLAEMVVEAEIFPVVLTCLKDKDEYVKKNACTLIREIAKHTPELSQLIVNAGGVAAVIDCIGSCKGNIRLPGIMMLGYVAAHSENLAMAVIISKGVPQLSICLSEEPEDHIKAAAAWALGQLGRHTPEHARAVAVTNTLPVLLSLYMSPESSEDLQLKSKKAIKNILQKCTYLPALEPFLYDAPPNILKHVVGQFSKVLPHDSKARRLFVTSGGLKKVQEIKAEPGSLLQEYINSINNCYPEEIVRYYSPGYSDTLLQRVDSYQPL
Assay: two-hybrid; direct yeast two-hybrid assay; indicated pGBK-T7 and pGAD-T7 plasmids transformed into AH109 yeast; growth on non-selection medium (SD-2) and selection medium (SD-3)

binding: binds
Substance: TAC1

Source: publication PMC8834003
